No constants are given. Whether binding was seen depends on the method and setting. Some entries that bind do so weakly or less than the wild type.
What was measured:
Human IR (human) [1] = molecular target: Human IR (human) (UniProt P06213); assay: ELISA, IR-coated plate
Mouse IR (mouse) [2] = molecular target: Mouse IR (mouse) (UniProt P15208); assay: ELISA, IR-coated plate
Human IR (human) [3] = molecular target: Human IR (human) (UniProt P06213); assay: ELISA, plate coated with human IR at 5 µg/ml, peroxidase anti-human Fc IgG
Mouse IR (mouse) [4] = molecular target: Mouse IR (mouse) (UniProt P15208); assay: ELISA, plate coated with mouse IR at 5 µg/ml, peroxidase anti-human Fc IgG
Mouse IR (mouse) [5] = molecular target: Mouse IR (mouse) (UniProt P15208); assay: competitive ELISA on coated mouse IR, IR739 mixed with biotinylated insulin at 0.6-150 nM, IR739 detected with peroxidase anti-human Fc IgG
Human IR (human) [6] = molecular target: Human IR (human) (UniProt P06213); assay: competitive ELISA on coated human IR, IR739 mixed with biotinylated insulin at 0.6-150 nM, IR739 detected with peroxidase anti-human Fc IgG
Human IR (human) [7] = molecular target: Human IR (human) (UniProt P06213); assay: ELISA, IR-coated plate; IR739 as the reference
Mouse IR (mouse) [8] = molecular target: Mouse IR (mouse) (UniProt P15208); assay: ELISA, IR-coated plate; IR739 as the reference

Amino acid sequences for entries named in this document (tags omitted). Residues count along the entry.
UniProt P06213, residues 28-956: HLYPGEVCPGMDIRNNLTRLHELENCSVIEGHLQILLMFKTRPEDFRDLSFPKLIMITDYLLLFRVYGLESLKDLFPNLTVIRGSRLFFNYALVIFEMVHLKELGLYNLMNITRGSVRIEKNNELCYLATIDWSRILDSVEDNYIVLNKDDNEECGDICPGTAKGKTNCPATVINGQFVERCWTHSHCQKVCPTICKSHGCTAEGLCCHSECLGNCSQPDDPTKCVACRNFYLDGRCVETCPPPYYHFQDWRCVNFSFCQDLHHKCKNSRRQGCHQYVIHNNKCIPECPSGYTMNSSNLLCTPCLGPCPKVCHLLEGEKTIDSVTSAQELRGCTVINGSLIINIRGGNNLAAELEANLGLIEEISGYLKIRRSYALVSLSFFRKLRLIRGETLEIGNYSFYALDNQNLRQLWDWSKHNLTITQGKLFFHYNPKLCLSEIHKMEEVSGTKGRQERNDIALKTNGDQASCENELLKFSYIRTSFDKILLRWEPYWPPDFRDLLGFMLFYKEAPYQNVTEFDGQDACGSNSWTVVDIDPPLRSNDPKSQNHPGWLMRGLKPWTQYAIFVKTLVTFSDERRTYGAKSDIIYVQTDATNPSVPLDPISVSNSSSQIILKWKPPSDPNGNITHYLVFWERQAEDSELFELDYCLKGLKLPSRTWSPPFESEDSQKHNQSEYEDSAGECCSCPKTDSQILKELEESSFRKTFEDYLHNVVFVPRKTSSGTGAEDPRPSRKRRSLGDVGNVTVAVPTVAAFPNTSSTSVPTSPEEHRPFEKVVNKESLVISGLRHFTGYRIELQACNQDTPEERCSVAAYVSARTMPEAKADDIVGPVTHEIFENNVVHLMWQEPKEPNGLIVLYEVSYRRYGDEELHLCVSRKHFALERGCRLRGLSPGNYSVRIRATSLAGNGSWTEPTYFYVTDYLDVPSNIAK
UniProt P15208, residues 28-946: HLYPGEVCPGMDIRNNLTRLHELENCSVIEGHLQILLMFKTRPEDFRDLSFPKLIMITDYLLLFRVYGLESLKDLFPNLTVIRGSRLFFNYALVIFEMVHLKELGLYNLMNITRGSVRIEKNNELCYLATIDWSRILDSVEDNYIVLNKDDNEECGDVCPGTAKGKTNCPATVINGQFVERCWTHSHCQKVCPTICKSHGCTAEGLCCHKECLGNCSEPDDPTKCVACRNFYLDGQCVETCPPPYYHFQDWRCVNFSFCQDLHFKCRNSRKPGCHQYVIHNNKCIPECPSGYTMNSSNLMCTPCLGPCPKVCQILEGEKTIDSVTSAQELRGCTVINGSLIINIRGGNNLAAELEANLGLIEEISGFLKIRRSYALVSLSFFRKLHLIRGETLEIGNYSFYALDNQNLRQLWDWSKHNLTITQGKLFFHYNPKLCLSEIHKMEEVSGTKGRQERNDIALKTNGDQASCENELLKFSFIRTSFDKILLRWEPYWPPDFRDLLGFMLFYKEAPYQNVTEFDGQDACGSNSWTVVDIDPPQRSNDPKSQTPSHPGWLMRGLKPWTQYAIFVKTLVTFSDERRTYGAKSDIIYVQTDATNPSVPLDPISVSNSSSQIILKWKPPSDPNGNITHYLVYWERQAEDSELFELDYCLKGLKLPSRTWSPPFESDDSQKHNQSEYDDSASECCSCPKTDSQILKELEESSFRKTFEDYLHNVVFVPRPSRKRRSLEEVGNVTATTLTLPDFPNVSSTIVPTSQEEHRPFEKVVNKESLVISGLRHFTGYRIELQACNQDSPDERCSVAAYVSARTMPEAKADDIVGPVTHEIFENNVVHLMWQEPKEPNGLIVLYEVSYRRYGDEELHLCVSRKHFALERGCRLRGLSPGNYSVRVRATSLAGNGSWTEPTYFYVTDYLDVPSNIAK

Row | Binder | binding (Human IR (human) [1]) | binding (Mouse IR (mouse) [2]) | binding (Human IR (human) [3]) | binding (Mouse IR (mouse) [4]) | binding (Mouse IR (mouse) [5]) | binding (Human IR (human) [6]) | binding (Human IR (human) [7]) | binding (Mouse IR (mouse) [8])
1 | L113 (antibody, V domains shown) VH: EVQLVESGGGLVQPGGSLRLSCAASGFTFSSYYMSWVRQAPGKGLEWVSAISYGGSSTYYADSVKGRFTISRDNSKNTLYLQMNSLRAEDTAVYYCARHPSYGTVNHAYFDVWGQGTLVTVSS VL: DIQMTQSPSSLSASVGDRVTITCGASRDVSSYLAWYQQKPGKAPKLLIYDANILQSGVPSRFSGSGSGTDFTLTISSLQPEDFATYYCLEYNSLPLTFGQGTKVEIKR | binds | binds | binds | binds |  |  |  | 
2 | H031 (antibody, V domains shown) VH: EVQLVESGGGLVQPGGSLRLSCAASGFTFSSYYMSWVRQAPGKGLEWVSAISYGGSSTYYADSVKGRFTISRDNSKNTLYLQMNSLRAEDTAVYYCARHPRYGTVNHAYFDVWGQGTLVTVSS VL: DIQMTQSPSSLSASVGDRVTITCGASRDVSSYLAWYQQKPGKAPKLLIYDANILQSGVPSRFSGSGSGTDFTLTISSLQPEDFATYYCLEYNNLPLTFGQGTKVEIKR | binds | binds | binds | binds |  |  |  | 
3 | L016 (antibody, V domains shown) VH: EVQLVESGGGLVQPGGSLRLSCAASGFTFSSYYMSWVRQAPGKGLEWVSAISYGGSSTYYADSVKGRFTISRDNSKNTLYLQMNSLRAEDTAVYYCARHPSYGTVNHAYFDVWGQGTLVTVSS VL: DIQMTQSPSSLSASVGDRVTITCGASRDVSSYLAWYQQKPGKAPKLLIYDANILQSGVPSRFSGSGSGTDFTLTISSLQPEDFATYYCLEYNVLPLTFGQGTKVEIKR | binds | binds | binds | binds |  |  |  | 

Other lines, results leading:

Row | binding (Human IR (human) [1]) | binding (Mouse IR (mouse) [2]) | binding (Human IR (human) [3]) | binding (Mouse IR (mouse) [4]) | binding (Mouse IR (mouse) [5]) | binding (Human IR (human) [6]) | binding (Human IR (human) [7]) | binding (Mouse IR (mouse) [8]) | Binder
4 | binds | binds | binds | binds |  |  |  |  | HL009 (antibody, V domains shown) VH: EVQLVESGGGLVQPGGSLRLSCAASGFTFSSYYMSWVRQAPGKGLEWVSAISYGGSSTYYADSVKGRFTISRDNSKNTLYLQMNSLRAEDTAVYYCARHPRYGTVNHAYFDVWGQGTLVTVSS VL: DIQMTQSPSSLSASVGDRVTITCGASRDVSSYLAWYQQKPGKAPKLLIYDANILQSGVPSRFSGSGSGTDFTLTISSLQPEDFATYYCLEYPNLPLTFGQGTKVEIKR
5 | binds | binds | binds | binds |  |  |  |  | H118 (antibody, V domains shown) VH: EVQLVESGGGLVQPGGSLRLSCAASGFTFSSYYMSWVRQAPGKGLEWVSAISYGGSSTYYADSVKGRFTISRDNSKNTLYLQMNSLRAEDTAVYYCARHPTYGTVNHAYFDVWGQGTLVTVSS VL: DIQMTQSPSSLSASVGDRVTITCGASRDVSSYLAWYQQKPGKAPKLLIYDANILQSGVPSRFSGSGSGTDFTLTISSLQPEDFATYYCLEYNNLPLTFGQGTKVEIKR
6 |  |  | binds | binds | binds | binds | binds | binds | IR739 (antibody, human IgG1, kappa, V domains shown) VH: EVQLVESGGGLVQPGGSLRLSCAASGFTFSSYYMSWVRQAPGKGLEWVSAISYGGSSTYYADSVKGRFTISRDNSKNTLYLQMNSLRAEDTAVYYCARHPSYGTVNHAYFDVWGQGTLVTVSS VL: DIQMTQSPSSLSASVGDRVTITCGASRDVSSYLAWYQQKPGKAPKLLIYDANILQSGVPSRFSGSGSGTDFTLTISSLQPEDFATYYCLEYNNLPLTFGQGTKVEIKR

— patent US20210324094A1
